Drawing on paper PMC9638026, this text covers binding result, Kd and binding signal (% dissociation of TIRR/53BP1) for 4 sequences.

Amino acid sequences for entries named in this document (tags omitted). Residues count along the entry.
UniProt Q9BRJ7, 6-211: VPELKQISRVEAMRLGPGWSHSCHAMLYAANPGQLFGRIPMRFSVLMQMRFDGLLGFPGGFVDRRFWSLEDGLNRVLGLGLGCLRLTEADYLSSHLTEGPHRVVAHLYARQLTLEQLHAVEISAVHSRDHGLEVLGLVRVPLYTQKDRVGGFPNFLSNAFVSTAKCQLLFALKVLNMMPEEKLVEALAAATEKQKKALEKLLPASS
UniProt Q12888, 1484-1603: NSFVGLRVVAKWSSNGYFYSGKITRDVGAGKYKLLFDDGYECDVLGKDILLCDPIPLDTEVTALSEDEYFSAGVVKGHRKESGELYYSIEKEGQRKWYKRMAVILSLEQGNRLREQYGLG

The target in one data set is TIRR (6-211)-His (UniProt Q9BRJ7). As to the kind of experiment: SPR. Conditions: SPR: 20 mM HEPES pH 6, 300 mM NaCl, 0.05% P20, 25 C, recombinant protein, residues 6-211, protein details: His; for binding result: up to 200 uM, no comparable binding.
Data set [1] concerns the target 53BP1-Tudor (Homo sapiens) (UniProt Q12888). The data set can be described thus: EMSA. The conditions noted are these: 20 mM Mg2+, EMSA: 50 mM HEPES, 50 mM NaCl, 5% glycerol, 20 mM MgCl2, 0.01% Tween 20, 37 C 15 min, 10 nM probe, commercial protein, label: 32P 5' in EMSA.
In a further data set the target is TIRR full length (UniProt Q9BRJ7). As to the kind of experiment: EMSA. Conditions: 20 mM Mg2+, EMSA: 50 mM HEPES, 50 mM NaCl, 5% glycerol, 20 mM MgCl2, 0.01% Tween 20, 37 C 15 min, 10 nM probe, recombinant protein, residues 1-211, label: 32P 5' in EMSA.
The target in another data set is TIRR (HTRF) (Homo sapiens?) (UniProt Q9BRJ7). The data set can be described thus: competition (HTRF). The conditions noted are these: TIRR/53BP1 complex, highest RNA concentration; EMSA: 50 mM HEPES, 50 mM NaCl, 5% glycerol, 20 mM MgCl2, 0.01% Tween 20, 37 C 15 min, 10 nM probe; recombinant protein; label: 32P 5' in EMSA.

For part of these data: Negatives hold for the conditions tested. For part of these data: At least one verdict rests on a figure or table, not on a statement of the authors. For at least one entry, the source does not settle the construct or the ends of the probe. For part of these data: Whether high values mean tight binding is not given here for every scale.

For the sequence “GGACAAGATGCCTTATGTGG (double strand) [dsDNA]”, the binding result with TIRR (6-211)-His (letters put together from the description) is reported as “no binding”.

With “GGACAAGATGCCTTATGTGG [ssDNA (DNA sense)]”, the binding result with TIRR (6-211)-His (label: 32P 5' in EMSA, single-stranded DNA) was “no binding”; in data set [1] (single-stranded DNA), “no binding”; with TIRR full length (single-stranded DNA), “no binding”.

With “GGACAAGATGCCTTATGTGGACTTCACCACATAAGGCATCTTGTCC [DNA hairpin]”, the binding result in the data set with TIRR (6-211)-His (folded or branched DNA) is on record as “no binding”.

For the sequence “GGACAAGAUGCCUUAUGUGG [ssRNA (RNA sense; ssRNA1)]”, the Kd with TIRR (6-211)-His (label: 32P 5' in EMSA) turned out to be 100 µM. Besides, the binding result is listed as “no binding” in data set [1] and “binds” with TIRR full length. Also, the binding signal (% dissociation of TIRR/53BP1) with TIRR (HTRF) turned out to be 18.
